Amino acid sequences for entries named in this document (tags omitted). A change or cut given only in a name is not applied to a line headed by its entry.
UniProt O95750: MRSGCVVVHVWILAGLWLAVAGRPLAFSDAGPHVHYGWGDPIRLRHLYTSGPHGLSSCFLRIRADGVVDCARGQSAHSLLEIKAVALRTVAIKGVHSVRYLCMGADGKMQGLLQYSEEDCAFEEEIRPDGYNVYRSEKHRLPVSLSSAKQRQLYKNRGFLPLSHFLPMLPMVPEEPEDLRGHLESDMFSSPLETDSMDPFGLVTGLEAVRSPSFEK
UniProt Q9NSA1: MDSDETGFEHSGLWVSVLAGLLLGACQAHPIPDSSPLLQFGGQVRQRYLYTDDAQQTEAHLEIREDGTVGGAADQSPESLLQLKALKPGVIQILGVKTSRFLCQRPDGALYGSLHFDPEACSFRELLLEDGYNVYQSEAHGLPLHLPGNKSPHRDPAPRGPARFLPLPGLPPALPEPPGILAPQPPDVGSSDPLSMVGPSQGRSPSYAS

According to US20130184211A1:

Columns and labels:
[1] = biological target: human FGF19 (R23 to K216), FGF19^23-216 (human) (UniProt O95750); test: SPR, FGF19^23-216 immobilized, 10 nM βKlotho ectodomain injected
[2] = biological target: human FGF21 (H29 to S209), FGF21^29-209 (human) (UniProt Q9NSA1); test: SPR, FGF21^29-209 immobilized, 10 nM βKlotho ectodomain injected
[3] = biological target: human FGF19 (R23 to K216), FGF19^23-216 (human) (UniProt O95750); test: SPR; FGF19^23-216 immobilized, βKlotho ectodomain injected with FGF23^180-251 (2:1)
[4] = biological target: human FGF21 (H29 to S209), FGF21^29-209 (human) (UniProt Q9NSA1); test: SPR; FGF21^29-209 immobilized, βKlotho ectodomain injected with FGF23^180-251 (2:1)

binding [1]: binds | binding [2]: binds | binding [3]: binds | binding [4]: binds
B1: ectodomain of murine βKlotho (F53 to L995) with C-terminal FLAG tag (receptor, UniProt Q99N32 53-995, looked up, not shown: small tags and cut ends)
chain: FSGDGKAIWDKKQYVSPVNPSQLFLYDTFPKNFSWGVGTGAFQVEGSWKTDGRGPSIWDRYVYSHLRGVNGTDRSTDSYIFLEKDLLALDFLGVSFYQFSISWPRLFPNGTVAAVNAQGLRYYRALLDSLVLRNIEPIVTLYHWDLPLTLQEEYGGWKNATMIDLFNDYATYCFQTFGDRVKYWITIHNPYLVAWHGFGTGMHAPGEKGNLTAVYTVGHNLIKAHSKVWHNYDKNFRPHQKGWLSITLGSHWIEPNRTDNMEDVINCQHSMSSVLGWFANPIHGDGDYPEFMKTGAMIPEFSEAEKEEVRGTADFFAFSFGPNNFRPSNTVVKMGQNVSLNLRQVLNWIKLEYDDPQILISENGWFTDSYIKTEDTTAIYMMKNFLNQVLQAIKFDEIRVFGYTAWTLLDGFEWQDAYTTRRGLFYVDFNSEQKERKPKSSAHYYKQIIQDNGFPLKESTPDMKGRFPCDFSWGVTESVLKPEFTVSSPQFTDPHLYVWNVTGNRLLYRVEGVRLKTRPSQCTDYVSIKKRVEMLAKMKVTHYQFALDWTSILPTGNLSKVNRQVLRYYRCVVSEGLKLGVFPMVTLYHPTHSHLGLPLPLLSSGGWLNMNTAKAFQDYAELCFRELGDLVKLWITINEPNRLSDMYNRTSNDTYRAAHNLMIAHAQVWHLYDRQYRPVQHGAVSLSLHCDWAEPANPFVDSHWKAAERFLQFEIAWFADPLFKTGDYPSVMKEYIASKNQRGLSSSVLPRFTAKESRLVKGTVDFYALNHFTTRFVIHKQLNTNRSVADRDVQFLQDITRLSSPSRLAVTPWGVRKLLAWIRRNYRDRDIYITANGIDDLALEDDQIRKYYLEKYVQEALKAYLIDKVKIKGYYAFKLTEEKSKPRFGFFTSDFRAKSSVQFYSKLISSSGLPAENRSPACGQPAEDTDCTICSFLVEKKPL

Results are given in words; binding and its absence hold for the method and conditions named. A result given as binding can be weak or reduced; the word gives no strength. Where a sequence is shown, tags or fusion partners need not be part of it.
